Test results reported in publication PMC6145937.
No constants are given. Whether binding was seen depends on the method and setting. Binding seen in cells or lysates may run through a third protein. Some results given as binding are weak or reduced against the parent protein; the word gives no strength.

Chains of the proteins cited; added tags and fusions are not shown. Residues count along the entry.
UniProt P08592, residues 18-770: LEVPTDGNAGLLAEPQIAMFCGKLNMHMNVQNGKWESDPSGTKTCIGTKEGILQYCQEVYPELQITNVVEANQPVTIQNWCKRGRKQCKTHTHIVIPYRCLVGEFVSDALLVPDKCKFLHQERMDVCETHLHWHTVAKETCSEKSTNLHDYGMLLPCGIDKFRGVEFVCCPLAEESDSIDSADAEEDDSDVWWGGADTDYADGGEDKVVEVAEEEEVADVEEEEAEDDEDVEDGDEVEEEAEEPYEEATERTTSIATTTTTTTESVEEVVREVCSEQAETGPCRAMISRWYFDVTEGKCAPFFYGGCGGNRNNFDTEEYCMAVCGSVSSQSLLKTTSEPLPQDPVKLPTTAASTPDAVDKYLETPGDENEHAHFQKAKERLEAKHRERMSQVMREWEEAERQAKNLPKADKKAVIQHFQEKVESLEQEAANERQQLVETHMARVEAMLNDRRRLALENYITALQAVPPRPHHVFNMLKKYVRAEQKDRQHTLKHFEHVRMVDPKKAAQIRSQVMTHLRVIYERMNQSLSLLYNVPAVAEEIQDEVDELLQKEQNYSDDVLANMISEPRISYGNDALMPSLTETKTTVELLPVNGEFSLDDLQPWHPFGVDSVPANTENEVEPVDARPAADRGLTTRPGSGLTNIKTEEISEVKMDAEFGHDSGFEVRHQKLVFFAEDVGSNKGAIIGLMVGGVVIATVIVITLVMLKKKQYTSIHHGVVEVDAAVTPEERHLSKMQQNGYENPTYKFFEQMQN

Target: T1, Vangl2 (van Gogh-like 2), endogenous in rat primary cortical neurons (rat (endogenous in primary cortical neurons)) (UniProt P84889)
T1 sequence: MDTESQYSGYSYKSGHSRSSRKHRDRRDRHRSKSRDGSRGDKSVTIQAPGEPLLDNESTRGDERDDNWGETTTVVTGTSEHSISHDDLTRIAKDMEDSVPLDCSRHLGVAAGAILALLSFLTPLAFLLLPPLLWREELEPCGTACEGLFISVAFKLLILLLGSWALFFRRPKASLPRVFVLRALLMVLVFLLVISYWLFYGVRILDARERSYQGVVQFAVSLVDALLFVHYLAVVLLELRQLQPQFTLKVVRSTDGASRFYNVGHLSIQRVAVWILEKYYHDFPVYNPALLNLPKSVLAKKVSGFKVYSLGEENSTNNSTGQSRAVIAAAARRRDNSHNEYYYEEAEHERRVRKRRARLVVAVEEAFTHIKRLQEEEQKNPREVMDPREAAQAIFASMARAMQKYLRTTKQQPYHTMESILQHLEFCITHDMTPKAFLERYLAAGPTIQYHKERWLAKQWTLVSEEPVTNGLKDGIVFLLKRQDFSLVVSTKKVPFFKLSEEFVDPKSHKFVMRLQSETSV
Assay: co-IP; lysate of rat primary cortical neurons (21 d.i.c.), 1% Triton X-100 lysis buffer pH 7.5; IP with anti-LRP6 or anti-Vangl2 antibody on Protein G magnetic beads; APP detected by western blot

“Amyloid Precursor Protein (APP), endogenous in rat primary cortical neurons (from UniProt P08592 18-770)” was tested, and the binding was “binds”.
